The record followed here is PMC2865516.

Chains of the proteins cited; added tags and fusions are not shown.
UniProt P00546: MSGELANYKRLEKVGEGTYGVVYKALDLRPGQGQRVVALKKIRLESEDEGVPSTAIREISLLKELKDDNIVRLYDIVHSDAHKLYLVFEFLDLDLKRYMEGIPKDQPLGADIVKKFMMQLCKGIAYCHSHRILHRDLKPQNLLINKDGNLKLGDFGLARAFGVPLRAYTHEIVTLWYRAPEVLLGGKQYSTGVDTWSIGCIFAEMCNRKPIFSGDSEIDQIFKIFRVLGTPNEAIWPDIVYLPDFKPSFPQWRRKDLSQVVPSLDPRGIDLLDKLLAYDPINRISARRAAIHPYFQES

The test addresses T1, Clb2-TAP (S. cerevisiae) (UniProt P24869).
T1 sequence: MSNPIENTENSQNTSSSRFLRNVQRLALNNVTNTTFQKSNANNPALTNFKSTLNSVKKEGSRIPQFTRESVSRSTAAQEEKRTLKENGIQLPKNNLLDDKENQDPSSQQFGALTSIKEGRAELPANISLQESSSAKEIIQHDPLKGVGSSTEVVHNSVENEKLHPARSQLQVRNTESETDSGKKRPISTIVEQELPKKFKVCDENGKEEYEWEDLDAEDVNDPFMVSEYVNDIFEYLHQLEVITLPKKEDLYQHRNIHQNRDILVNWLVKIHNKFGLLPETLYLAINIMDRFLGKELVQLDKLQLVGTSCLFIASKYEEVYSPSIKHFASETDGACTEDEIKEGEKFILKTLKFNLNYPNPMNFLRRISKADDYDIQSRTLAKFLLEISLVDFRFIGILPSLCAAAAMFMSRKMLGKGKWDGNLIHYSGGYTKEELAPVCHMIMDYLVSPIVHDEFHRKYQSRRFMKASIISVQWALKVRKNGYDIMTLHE
In words: pull-down; Clb2-TAP captured from yeast lysate (modified RIPA buffer) on IgG-Sepharose beads, released by overnight AcTEV cleavage at 4°C (abbreviated TAP protocol); Cdc28 in the eluate quantified by western blot with anti-PSTAIR against a GST-Cdk1 standard. For orientation: A western blot detects proteins with antibodies after separation by electrophoresis.

Results are given in words; binding and its absence hold for the method and conditions named. In cells and extracts the contact can be indirect. Some binding calls cover weakened binding; strength is not graded here.

On to “Cdc28 (from UniProt P00546 1-298) (enzyme)”, for which the binding entry was “binds”.
